Experiment: soluble on expression in E. coli; label from the status in PepcDB or PDB records
For “GPGSMSLRVVDVCGRATGRLILVGDIHGCLDQLRELLVKVHFANAVVRRCPTLLTTSSSSASSLSRAGPLPSRGGAPSMCIPAVLKPGPLGESASPSAEDGAVEDVCVFVGDLVNKGPDSYGVVRFLRDIGAIGVLGNHDAALLQLSEKLRADVPLTDKEASSSLYPLALHCPDDVFAFMMSVPHILCFHAYRLIVVHAGIDPSIPLAAQSVEAVTRMRNLVKAKKYWRQPTNEATGQPAHVALSVSAAFATLERPKLGANWGVKWSELARKLHGSVAGEEASDRSSDRSRGRSRSGGSGTGDGADDSGKKKPKKADEDVSKWRRRIHRDYTDFTVVYGHDAKRRLQVYPYAYGLDSGCVYGGELTGLVWPSTLVSVPGWTDPSPPRKSKV”, the “soluble on expression in E. coli” value was “soluble”. In the case of “IDRQSLFVNVGERTNITGSARFARLIREDNYTEALEVALQQVEAGAQVIDINMDEGMLDSKKAMVTFLNLIAGEPDISRVPIMIDSSKWEVIEAGLKCIQGKGIVNSISMKEGVEQFIHHARLCKRYGAAVVVMAFDEQGQADTEARKKEICKRSYDILVNEVGFPPEDIIFDPNIFAIATGIEEHNNYAVDFINACAYIRDELPHALTSGGVSNVSFSFRGNNPVREAIHSVFLLHAIRNGLSMGIVNAGQLEIYDQIPAELRDCVEDVVLNRNPEGTEALLAIADKYKGDG”, the “soluble on expression in E. coli” value is reported as “not soluble”. In the case of “MAHHHHHHMNAAAIEVINKLKKEDESNNKCFDCGVPNPDWVSVNHGVFLCINCSGVHRSLGVHISIVRSIKMDIFTDEQLKYLDKGGNKKFQTYLENYGINNFIPERKYRTKAAEHYRKIMKSIVHNSDPPSPLSLDEGKDLINFGQNENMNANEINKNGKNNLYADDQQNFIPSLNTAEILDNVSATFSNFINRAQTMTTNTINNLNKNDLIESTKDTLMNSSSWITEKTKKIAENVSDNPWWEKGQSKIKDVTQNATGWISSISSTVSRTNSNFFFANSEFGATGGPTGTGSVSTNASAEGGQGAAAPDHLASTSSSANADGVSKPSAGENNPAFSRTDTSKSLNKN”, the “soluble on expression in E. coli” value is reported as “soluble”. For “MAHHHHHHMPKKSMHATRNDLPSNTKTTMIALLNENLAATIDLALITKQAHWNLKGPQFIAVHEMLDGFRAELDDHVDTIAERAVQIGGTAYGTTQVVVKESRLKPYPTDIYAVHDHLVALIERYGDVANLVRKSIKDADDAGDDDTADIFTAASRSLDKALWFLEAHVQESN”, the “soluble on expression in E. coli” value was “soluble”. In the case of “MAITTAASRLGTEPFSEVRRVELRPNSSREQVEAVIKAVYRQVLGNDYILASDRLISAESLLRDRHLTVREFVRSVAKSELYKAKFFHNSFQTRLIELNYKHLLGRAPYDESEVTYHLDLYINEGYDAEIDSYIDSQEYQNSFGENVVPYYRGFDFQAGQNAAGFTRMFRLYRGYANSDTAQVEGSKSRLARELASNKSSSVVGPSGSNNNWSFRASADNAPKQNLGNAVGQSDRVYRIEVAGIRNPGYPKVRRSSTVFIVPYERLLDKMQQIHRQGGKIVSVIST”, the “soluble on expression in E. coli” value is reported as “not soluble”. In the case of “MAQKGVLGPGQLGAVAILLYLGLLRSGTGAEGAEAPCGVAPQARITGGSSAVAGQWPWQVSITYEGVHVCGGSLVSEQWVLSAAHCFPSEHHKEAYEVKLGAHQLDSYSEDAKVSTLKDIIPHPSYLQEGSQGDIALLQLSRPITFSRYIRPICLPAANASFPNGLHCTVTGWGHVAPSVSLLTPKPLQQLEVPLISRETCNCLYNIDAKPEEPHFVQEDMVCAGYVEGGKDACQGDSGGPLSCPVEGLWYLTGIVSWGDACGARNRPGVYTLASSYASWIQSKVTELQPRVVPQTQESQPDSNLCGSHLAFSSAPAQGLLRPILFLPLGLALGLLSPWLSEH”, the “soluble on expression in E. coli” value is reported as “soluble”. With “MDSSTHSTADFGRLVWISDEAEGFVAARITDIAENGFTLATEKTSETVNRRYEDTWACEEDPQKSVEDNCALVHLNEATLLNNCRLRYANGKIYTYVANILISINPYQLIDGLYSPETIKEYRGKSLGQMEPHIFAIADKAYREMRRIKTSQSIIVSGESGAGKTESQKAVLKYLCENWGTDAGPIQQRLLETNPILEAFGNAKTLRNNNSSRFGKFVQIHFSDNGTVAGGFVSHYLLETSRVCRQAAGERNYHIFYQLIAGSSPDLYKKLRLAPASSFNYLKHGATLFFVNSKSSLKTDASRFSETNSSVSDSIISDIDDFAKLERALALSGVSDDEKMFIWSTVAGILHLGNIEFEENASDSRGGCMITSGTENSLMAAAELLGLEPEEMKLGLCARIMQTTKGGVKGTLIRVPLKAHEASAGRDALAKAIYSKLFDWLVAQINKSIPFEKSTGYIGVLDVAGFEYFAVNSFEQFCINFCNEKLQHFFNERILKQEQEMYEAEGLNIQKIEFTDNLDCIELFEKKASGLFDLLDEEAKLPRATFQHFTQRAHESNKNHFRLDAPRKSKVKSHREMRDDEGLLIRHYAGTVCYETRYFVEKNNDQLHNSLEMLIEQSSFPLVVSLFTSEATGAVKTGGRLKAVSVGAKFKSQLSSLLDKLNNTGTHFVRCVKPNSQMKAWHFDGSAILGQLQCAGMASVLRLMQEGFPSRTSFADLYAMYEKNLPPSLARLDPRLFSKCLFHALGLDQNDFQFGNTKVFFTAGKFAEFDQMMKQDPETVMELISKVTDWLVKARWRKVQYGAWSVIKLKNKILYRAEKIKKIQAWIRGYLVRKRFHKRLAIFRKACALLENSREMTDILARMNESSQDKWREAADSTTGELDELVKTIKNDDLNTEIDRAVKCYEDCVKRVDSIIADLKLQLENDELAEVERARKEAEDKERREAEEKAAAEQEKILRRKMEEEREKAQKEYELQLEMQKQKLAAEAEEEVKRRNKEERDRLDAAVSSRLASSDGVALVAQEASAAPPKQQSKYDLGNWKYADLRDAINTSNDMELLVACKEEFHRRLRIYNEWKSKNSANRDVPPTRAPLTVYNQQKPSSSSMMVSRVQAAPHLNPALTQQRYFKVSFATDNKKKNGGSQSGMWYAHFNGQYIRRQLTIRPSQKPQLLVAGKDDLQMCELPLEQTGLLRKKGAEISSNDFETMWYHYGGKPIQEWTP” the “soluble on expression in E. coli” value was “not soluble”. In the case of “MEGHKAEEEVLDVLRLNVGGCIYTARRESLCRFKDSMLASMFSGRFPLKTDESGACVIDRDGRLFKYLLDYLHGEVQIPTDEQTRIALQEEADYFGIPYPYSLSDHLANEMETYSLRSNIELKKALTDFCDSYGLVCNKPTVWVLHYLNTSGASCESRIIGVYATKTDGTDAIEKQLGGRIHSKGIFKREAGNNVQYIWSYYSVAELKKMMDAFDAWEGKGVSY”, the “soluble on expression in E. coli” value is reported as “not soluble”. With “MGSDKIHHHHHHMSSSPLLQIDDLSIAFRKGDQEQRVVDQLSLAVNAGETLALVGESGSGKSVTALSVLRLLPSPPVVYPQGDIRFAGQSLLHADEKTLRQIRGNRIAMIFQEPMVSLNPLQSIEKQLIEVLSLHCGMRTEAARSEVISCLDRVGIRQAKSRLNDFPHQLSGGERQRVMIAMALLTQPDLLIADEPTTALDVTVQAQILKLLNELKREMGMSLLFITHDLNIVRQLADNVSVMKSGKAVEHNSCQQLFSAPQHPYTRQLLDAEPSGEPLPVEDDGGPLLRVEHLHVSFPIKRGLLRRTVDEKQVVNNISFTLRRGESLGLVGESGSGKSTTGLALLRLIQSRGDIWFDGQPLQGLTRKQMLPFRHRIQVVFQDPNSALNPRLNVEQIIAEGLIVHHKLSKEAQEQRVVAVMQEVGLDPTTRYRYPSEFSGGQRQRIAIARALILQPELLILDEPTSSLDRTVQAQILALLKSLQEKHKIAYLFISHDLQVIRSLCHQVIVLRQGEVVEQGECKQVFTHPAEHYTRELLQFSSGMTETQSA” the “soluble on expression in E. coli” value was “not soluble”. For “MLSARSFLSSARTIARSSLMSARSLSDKPKGHVIGIDLGTTNSCVSIMEGKTPKVIENAEGVRTTPSTVAFTADGERLVGAPAKRQAVTNSANTLFATKRLIGRRYEDPEVQKDLKVVPYKIVKASNGDAWVEAQGKVYSPSQVGAFVLMKMKETAESYLGTTVNNAVVTVPAYFNDSQRQATKDAGQISGLNVLRVINEPTAAALAYGLDKDAGDKIIAVYDLGGGTFDVSILEIQKGVFEVKSTNGDTFLGGEDFDHALVHHLVGEFKKEQGVDLTKDPQAMQRLREAAEKAKCELSSTTQTDINLPYITMDQSGPKHLNLKLTRAKFEQIVGDLIKRTIEPCRKALHDAEVKSSQIADVLLVGGMSRMPKVQATVQEIFGKVPSKAVNPDEAVAMGAAIQGAVLAGDVTDVLLLDVTPLSLGIETLGGIMTKLITRNTTIPTKKSQVFSTAADGQTQVQIKVFQGEREMATSNKLLGQFSLVGIPPAPRGVPQVEVTFDIDANGIVNVSARDRGTGKEQQIVIQSSGGLSKDQIENMIKEAEKNAAEDAKRKELVEVINQAEGIIHDTEAKMTEFADQLPKDECEALRTKIADTKKILDNKDNETPEAIKEACNTLQQQSLKLFEAAYKNMAAKNSGGDAQEAKTAEEPKKEQN”, the “soluble on expression in E. coli” value was “not soluble”. With “MNLTPAEIVRELSKHIVGQEAAKRAVAVALRNRYRRKKLPPEIAREVTPKNILMIGPTGVGKTEIARRLARLAGAPFVKVEATKFTEVGYVGRDVDSIVRDLAEASYQLVLEEMKKKVEEKALALAEEELATLLRTSVAEVRSGRLDGHFVEVQVEEEVALPFMGVLGGEAFGGMGEMLKGLLPRRPVRRRMTVREAREVLKNQHAERLIDKEELKEEARRRAQEEGIVFIDEIDKVARREGTVGPDVSGEGVQRDLLPIVEGTVVSTRIGPISTEHVLFIAAGAFHVAKPSDLIPELQGRFPIRVELSPLGPEEFYRILKEPENSLIRQYTELLKADGTELVFEDEALWAIAQAAHRANQELEDIGARRLATVLEKVLEEVSFQTDLGRVEITRAYVEKRLEAVFASPDLTRFVL” the “soluble on expression in E. coli” value was “soluble”. With “MNRKASVSKELNAKHSKILEALLKHPDNRECADCRSKAPRWASVNLGIFICMQCSGIHRSLGVHISQVRSITLDTWLPDQVAFMKSTGNAKGNEYWESELPQHFERSSSDTFIRAKY” the “soluble on expression in E. coli” value was “not soluble”. For “MPLLSQHSRGGCSSESSRVALHCCSNLGPGLGGAPDVPHPPLKIPGGRGNSQRDHSLSASILYSDERLNVTEEPTSNDKTRVLSIQCTLTEAKQVTWRAVWNGGGLYIELPAGPLPEGSKDSFAALLEFAEEQLRADHVFICFPKNREDRAALLRTFSFLGFEIVRPGHPLVPKRPDACFMVYTLEREDPGEED”, the “soluble on expression in E. coli” value was “soluble”. In the case of “MPVSPSSVSVLPPTSLEQILRIRAERNQRTPKCARCRNHGTTSALKGHKRYCQWKDCMCAKCTLIAERQRVMAAQVALRRQQSQEERDARDLEVLLGSAGNANDLLDILRLDAGEHHGKNHASPTTNNNNNTEEKYEDSQGQRSSPSSPTGSETVVSTSSPPELSSESTPNTSGSVIPTSPVFKPNGYSSMPMFNPVYGRPFMRFPMFSVMPHFFGTPSMSDFASAASLAAPPAFFSAQPTIATSSPSTIFPQTAPLDYSHRLMKNEEAEEEYRENDKTF”, the “soluble on expression in E. coli” value is reported as “not soluble”. In the case of “MRSDQIKKGLKQAPARAMLRAVGVGDEDFGRPFVGVVNTFTDGMPCNFHLRELAQHLKAGLREAGLFPFEFGAPAISDGISMGTPGMRASLVSREVIADSVELIAQGYLYDGMVGLSACDKTIPGTAMGVIRSGVPGMVLYGGTIAPGEWQGRKLTIVEVFEAVGQRAAGKISEEELLEIERRAIPGPGACGGQYTANTMAMALEALGLSPVGYNAIPAVHPEKERATKEAGKILAWAIAHDWKPKDFLTRKSFLNAVAAVAATGGSTNAVLHLLALAKEAGVELSLDDFDQISRKTPVIADLRPWGTYTAWELYEAGGTALVFKRLLEAGLLFGEEKTLTGRTLAEEVERAYREQEGQKVVFPVEKALKPHGGLVVLKGNLAPQGAVLKLAGTERTSFEGPARVFDSEEAAMEKVLKGEIRPGDVVVIRYVGPKGAPGMPEMLSVTSAIVGEGLGPEVALLTDGRFSGGTRGLMIGHIAPEAFVGGPIALLEEGDRIRIDVEGRRLEVLLPEEELERRRARWRPRPPAFTHGLFARYAALVRQADEGAVLEDPL”, the “soluble on expression in E. coli” value is reported as “soluble”. With “MSGHPGSWEMNSVAFEDVAVNFTQEEWALLDPSQKNLYRDVMQETFRNLASIGNKGEDQSIEDQYKNSSRNLSSFQIHQRNHTGEKPYECMECGKALGFSRSLNRHKRIHTGEKRYECKQCGKAFSRSSHLRDHERTHTGEKPYECKHCGKAFRYSNCLHYHERTHTGEKPYVCMECGKAFSCLSSLQGHIKAHAGEEPYPCKQCGKAFRYASSLQKHEKTHIAQKPYVCNNCGKGFRCSSSLRDHERTHTGEKPYECQKCGKAFSRASTLWKHKKTHTGEKPYKCKKM” the “soluble on expression in E. coli” value was “soluble”.

Reference: the DeepSol protein solubility set
